Results published in the supplement of paper PMC10849652.
This is one part of the list.

Sequences of proteins named here, by UniProt entry; tags and fusion partners are left off. A change or cut given only in a name is not applied to a line headed by its entry.
UniProt Q96CP6, whole entry, looked up: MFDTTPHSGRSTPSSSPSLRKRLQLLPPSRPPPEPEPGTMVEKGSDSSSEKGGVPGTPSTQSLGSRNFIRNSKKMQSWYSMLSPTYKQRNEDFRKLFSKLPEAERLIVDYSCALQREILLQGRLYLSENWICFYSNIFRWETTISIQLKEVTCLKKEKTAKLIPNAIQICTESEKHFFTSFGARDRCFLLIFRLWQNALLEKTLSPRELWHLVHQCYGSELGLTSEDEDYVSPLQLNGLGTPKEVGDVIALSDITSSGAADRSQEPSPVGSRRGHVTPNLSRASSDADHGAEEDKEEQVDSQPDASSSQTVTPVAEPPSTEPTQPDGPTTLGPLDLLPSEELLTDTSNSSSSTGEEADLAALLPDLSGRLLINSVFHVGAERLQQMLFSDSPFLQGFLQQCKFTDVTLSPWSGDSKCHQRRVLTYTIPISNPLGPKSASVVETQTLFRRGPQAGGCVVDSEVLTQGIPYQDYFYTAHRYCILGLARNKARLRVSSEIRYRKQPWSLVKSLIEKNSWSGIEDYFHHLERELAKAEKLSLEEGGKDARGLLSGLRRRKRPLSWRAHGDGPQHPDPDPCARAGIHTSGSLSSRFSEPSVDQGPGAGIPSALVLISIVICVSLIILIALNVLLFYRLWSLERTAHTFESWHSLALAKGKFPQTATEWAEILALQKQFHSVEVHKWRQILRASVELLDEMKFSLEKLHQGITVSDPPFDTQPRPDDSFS
UniProt O43824: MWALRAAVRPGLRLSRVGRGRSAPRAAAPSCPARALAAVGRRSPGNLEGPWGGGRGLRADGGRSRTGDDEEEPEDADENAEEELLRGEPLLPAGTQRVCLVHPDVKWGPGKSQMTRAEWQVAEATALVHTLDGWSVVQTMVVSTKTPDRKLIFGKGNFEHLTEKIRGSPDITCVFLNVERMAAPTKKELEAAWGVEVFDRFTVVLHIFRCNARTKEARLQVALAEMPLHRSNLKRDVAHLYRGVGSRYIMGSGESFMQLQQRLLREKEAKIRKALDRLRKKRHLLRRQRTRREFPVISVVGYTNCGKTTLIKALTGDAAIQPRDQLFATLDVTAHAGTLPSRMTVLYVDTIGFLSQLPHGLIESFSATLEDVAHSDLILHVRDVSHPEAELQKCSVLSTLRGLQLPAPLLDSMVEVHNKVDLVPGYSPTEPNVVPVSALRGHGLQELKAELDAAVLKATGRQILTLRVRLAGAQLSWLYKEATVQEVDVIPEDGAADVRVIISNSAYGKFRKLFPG
UniProt Q5JVS0: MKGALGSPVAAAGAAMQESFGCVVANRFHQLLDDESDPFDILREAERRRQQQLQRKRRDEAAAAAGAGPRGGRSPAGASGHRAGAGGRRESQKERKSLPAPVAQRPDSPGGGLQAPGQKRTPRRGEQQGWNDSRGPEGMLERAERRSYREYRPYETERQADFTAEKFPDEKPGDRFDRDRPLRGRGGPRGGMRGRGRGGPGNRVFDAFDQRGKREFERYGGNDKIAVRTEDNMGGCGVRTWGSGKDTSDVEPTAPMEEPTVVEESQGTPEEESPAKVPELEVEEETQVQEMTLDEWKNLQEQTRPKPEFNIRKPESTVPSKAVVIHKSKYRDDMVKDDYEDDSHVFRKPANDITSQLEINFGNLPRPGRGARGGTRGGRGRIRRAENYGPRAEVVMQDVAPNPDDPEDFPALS
UniProt P00390: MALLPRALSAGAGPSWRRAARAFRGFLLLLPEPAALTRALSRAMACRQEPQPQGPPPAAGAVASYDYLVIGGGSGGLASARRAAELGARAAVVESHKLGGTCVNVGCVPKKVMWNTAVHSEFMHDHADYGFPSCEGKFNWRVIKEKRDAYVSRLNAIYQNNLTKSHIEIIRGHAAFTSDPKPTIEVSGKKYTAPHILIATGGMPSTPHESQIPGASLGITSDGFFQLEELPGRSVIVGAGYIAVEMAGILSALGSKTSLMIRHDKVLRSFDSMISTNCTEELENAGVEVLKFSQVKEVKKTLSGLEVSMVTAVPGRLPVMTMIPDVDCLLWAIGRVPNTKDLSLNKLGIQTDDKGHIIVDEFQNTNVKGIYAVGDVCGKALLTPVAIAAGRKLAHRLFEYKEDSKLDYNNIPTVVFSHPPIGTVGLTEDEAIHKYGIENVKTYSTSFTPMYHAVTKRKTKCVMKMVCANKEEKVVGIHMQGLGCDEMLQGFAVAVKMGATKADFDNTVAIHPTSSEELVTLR
UniProt Q8TD30: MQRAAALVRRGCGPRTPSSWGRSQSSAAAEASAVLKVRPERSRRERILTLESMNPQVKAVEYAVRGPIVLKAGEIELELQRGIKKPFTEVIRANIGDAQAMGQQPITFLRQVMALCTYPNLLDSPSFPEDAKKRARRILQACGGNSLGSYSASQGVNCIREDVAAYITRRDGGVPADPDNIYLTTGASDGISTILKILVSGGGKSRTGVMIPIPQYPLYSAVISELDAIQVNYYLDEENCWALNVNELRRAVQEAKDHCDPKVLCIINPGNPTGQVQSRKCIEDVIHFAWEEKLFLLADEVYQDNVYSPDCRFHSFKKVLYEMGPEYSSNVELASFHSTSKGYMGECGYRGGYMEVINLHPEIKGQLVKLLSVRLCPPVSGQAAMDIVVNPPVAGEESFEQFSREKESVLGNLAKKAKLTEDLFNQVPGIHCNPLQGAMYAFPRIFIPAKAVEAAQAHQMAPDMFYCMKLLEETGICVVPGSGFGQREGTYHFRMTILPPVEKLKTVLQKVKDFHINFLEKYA
UniProt Q6Y1H2: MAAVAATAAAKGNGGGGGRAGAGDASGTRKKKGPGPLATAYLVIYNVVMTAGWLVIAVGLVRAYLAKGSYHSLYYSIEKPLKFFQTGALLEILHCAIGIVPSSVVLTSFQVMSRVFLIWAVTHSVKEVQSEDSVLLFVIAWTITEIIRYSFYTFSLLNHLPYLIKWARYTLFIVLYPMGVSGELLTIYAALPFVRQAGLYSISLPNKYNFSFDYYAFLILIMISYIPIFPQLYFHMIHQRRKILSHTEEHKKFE
UniProt Q6IC98: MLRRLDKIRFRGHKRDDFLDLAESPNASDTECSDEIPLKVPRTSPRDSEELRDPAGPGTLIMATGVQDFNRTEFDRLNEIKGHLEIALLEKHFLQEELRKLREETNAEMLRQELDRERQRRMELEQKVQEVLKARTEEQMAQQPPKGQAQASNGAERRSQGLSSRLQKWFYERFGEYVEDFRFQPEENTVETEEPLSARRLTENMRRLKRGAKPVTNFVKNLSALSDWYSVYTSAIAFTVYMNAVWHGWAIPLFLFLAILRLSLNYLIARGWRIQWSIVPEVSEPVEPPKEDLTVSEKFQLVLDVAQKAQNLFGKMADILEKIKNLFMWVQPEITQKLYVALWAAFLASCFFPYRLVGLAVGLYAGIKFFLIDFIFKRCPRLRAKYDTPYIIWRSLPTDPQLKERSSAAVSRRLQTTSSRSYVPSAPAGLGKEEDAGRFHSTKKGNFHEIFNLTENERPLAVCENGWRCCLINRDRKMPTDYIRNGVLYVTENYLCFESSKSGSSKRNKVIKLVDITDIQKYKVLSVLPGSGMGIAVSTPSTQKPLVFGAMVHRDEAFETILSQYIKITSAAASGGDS
UniProt P28799: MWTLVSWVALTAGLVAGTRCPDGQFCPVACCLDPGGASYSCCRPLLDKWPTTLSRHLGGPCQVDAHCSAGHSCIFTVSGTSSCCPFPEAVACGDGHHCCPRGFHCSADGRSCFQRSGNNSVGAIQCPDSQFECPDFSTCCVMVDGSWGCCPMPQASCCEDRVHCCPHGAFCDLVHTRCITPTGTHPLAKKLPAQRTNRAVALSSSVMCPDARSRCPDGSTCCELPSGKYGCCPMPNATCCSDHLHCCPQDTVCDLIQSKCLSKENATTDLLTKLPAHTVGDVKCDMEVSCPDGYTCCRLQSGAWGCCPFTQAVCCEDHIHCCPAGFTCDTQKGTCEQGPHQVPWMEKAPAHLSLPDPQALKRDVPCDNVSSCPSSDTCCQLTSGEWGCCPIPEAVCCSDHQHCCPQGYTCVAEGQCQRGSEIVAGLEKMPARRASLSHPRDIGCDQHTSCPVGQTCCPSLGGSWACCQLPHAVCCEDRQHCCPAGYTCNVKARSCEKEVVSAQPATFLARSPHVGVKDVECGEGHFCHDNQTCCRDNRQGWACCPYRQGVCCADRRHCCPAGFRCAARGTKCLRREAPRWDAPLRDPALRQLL
UniProt Q9UBP9: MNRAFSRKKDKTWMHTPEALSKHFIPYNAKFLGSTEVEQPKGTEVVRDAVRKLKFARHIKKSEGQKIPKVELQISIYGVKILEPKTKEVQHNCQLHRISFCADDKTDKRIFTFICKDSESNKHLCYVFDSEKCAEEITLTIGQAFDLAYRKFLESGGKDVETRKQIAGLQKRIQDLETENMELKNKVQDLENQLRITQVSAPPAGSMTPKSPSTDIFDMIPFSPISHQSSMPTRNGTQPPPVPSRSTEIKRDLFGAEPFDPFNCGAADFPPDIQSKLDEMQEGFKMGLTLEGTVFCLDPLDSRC
UniProt P57764: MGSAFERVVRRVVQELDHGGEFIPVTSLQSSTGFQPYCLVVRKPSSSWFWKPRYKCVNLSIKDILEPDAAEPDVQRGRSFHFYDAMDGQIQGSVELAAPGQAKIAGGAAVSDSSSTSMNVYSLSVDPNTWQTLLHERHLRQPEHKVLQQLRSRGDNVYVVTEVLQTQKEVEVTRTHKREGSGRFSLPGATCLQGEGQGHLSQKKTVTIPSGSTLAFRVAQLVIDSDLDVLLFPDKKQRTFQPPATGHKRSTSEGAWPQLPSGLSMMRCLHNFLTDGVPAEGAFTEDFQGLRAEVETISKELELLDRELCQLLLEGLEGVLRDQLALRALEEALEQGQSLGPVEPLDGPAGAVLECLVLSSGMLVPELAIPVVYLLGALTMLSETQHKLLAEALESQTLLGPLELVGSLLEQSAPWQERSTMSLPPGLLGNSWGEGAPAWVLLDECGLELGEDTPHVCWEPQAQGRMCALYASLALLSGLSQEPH
UniProt Q4V328: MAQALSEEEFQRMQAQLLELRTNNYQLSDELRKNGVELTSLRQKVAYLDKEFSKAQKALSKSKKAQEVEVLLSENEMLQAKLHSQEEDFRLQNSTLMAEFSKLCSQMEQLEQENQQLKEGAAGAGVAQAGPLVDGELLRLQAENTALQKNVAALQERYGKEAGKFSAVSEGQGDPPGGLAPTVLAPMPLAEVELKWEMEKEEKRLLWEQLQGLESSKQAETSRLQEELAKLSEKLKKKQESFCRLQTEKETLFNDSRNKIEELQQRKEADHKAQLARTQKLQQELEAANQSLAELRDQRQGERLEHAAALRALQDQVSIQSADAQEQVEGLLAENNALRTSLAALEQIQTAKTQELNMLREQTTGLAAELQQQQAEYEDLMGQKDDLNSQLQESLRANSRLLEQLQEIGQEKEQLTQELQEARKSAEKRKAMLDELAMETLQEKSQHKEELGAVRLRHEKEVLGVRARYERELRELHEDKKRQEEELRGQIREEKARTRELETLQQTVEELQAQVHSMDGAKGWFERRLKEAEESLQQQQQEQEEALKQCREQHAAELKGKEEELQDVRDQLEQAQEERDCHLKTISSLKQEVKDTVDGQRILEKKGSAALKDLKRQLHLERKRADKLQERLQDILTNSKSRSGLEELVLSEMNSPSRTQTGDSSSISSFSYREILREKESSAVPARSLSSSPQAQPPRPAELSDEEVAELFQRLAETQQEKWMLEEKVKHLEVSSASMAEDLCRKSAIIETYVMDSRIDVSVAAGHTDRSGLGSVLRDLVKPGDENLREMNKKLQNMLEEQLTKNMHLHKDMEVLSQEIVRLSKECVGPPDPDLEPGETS
UniProt Q96NT3: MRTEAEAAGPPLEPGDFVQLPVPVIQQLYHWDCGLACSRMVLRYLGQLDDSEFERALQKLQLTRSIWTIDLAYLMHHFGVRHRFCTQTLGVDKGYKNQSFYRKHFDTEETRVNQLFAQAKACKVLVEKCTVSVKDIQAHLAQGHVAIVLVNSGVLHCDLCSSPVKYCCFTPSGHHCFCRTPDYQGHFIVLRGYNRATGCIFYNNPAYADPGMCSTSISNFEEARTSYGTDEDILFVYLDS
UniProt P15170, whole entry, looked up: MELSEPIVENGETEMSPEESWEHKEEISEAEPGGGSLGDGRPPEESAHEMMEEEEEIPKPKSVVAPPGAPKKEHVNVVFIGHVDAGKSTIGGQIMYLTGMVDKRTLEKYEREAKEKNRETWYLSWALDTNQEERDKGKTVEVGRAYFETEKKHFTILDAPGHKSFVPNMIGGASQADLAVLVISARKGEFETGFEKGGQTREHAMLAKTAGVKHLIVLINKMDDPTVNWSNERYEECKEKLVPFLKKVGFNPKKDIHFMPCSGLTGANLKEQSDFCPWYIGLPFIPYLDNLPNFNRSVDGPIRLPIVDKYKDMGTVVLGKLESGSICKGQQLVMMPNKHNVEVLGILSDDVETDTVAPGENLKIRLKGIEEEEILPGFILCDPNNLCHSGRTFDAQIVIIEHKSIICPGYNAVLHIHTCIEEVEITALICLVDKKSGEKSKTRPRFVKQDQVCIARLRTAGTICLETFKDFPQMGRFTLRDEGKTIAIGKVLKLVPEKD

Experiments:
Test in all cases: log2 fold change, soluble protein after heating vs DMSO (PISA); higher = thermal stabilisation; K562 lysate, 10 uM; active = over 0.2 and 3.5 SD of the protein, either way, in both replicates (recomputed)
[1] = compound: CC(C)C1=C2N=C(C=C(N2N=C1)NCC3=CC=CC=C3)NCCCCCCN
Procedure, shortened: (§1)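 Following dounce homogenisation of K562 pellets in PBS pH 7.4 with 1 mM MgCl2, crude extract at 1 mg/mL protein was incubated for 30 min with 10 μM compound. Aliquots were then heated for 3 min over 48°C-58°C and pooled, NP-40 was added to 0.5% at 4°C, and soluble protein was recovered as the supernatant at 21,000xg for 90 min. Channel-sum-equalised TMTpro 16plex LC-MS/MS quantified this protein. Each value, from duplicates, is a log-two fold change in thermal stability relative to solvent controls.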

[2] = compound: CC1=C(C=C(C=C1)NC(=O)C2=CC(=CC=C2)C(C)(C)C#N)NC3=CC4=C(C=C3)N=CN(C4=O)C
Procedure, shortened: as §1

sotrastaurin = compound: CN1CCN(c2nc(C3=C(c4c[nH]c5ccccc45)C(=O)NC3=O)c3ccccc3n2)CC1 [sotrastaurin]
Procedure, shortened: as §1

[3] = compound: CC1=C(C2=C(C=C1)C(=O)C3=CC=CC=C3N2CCCN)C
Procedure, shortened: as §1

vemurafenib = compound: CCCS(=O)(=O)Nc1ccc(F)c(C(=O)c2c[nH]c3ncc(-c4ccc(Cl)cc4)cc23)c1F [vemurafenib]
Procedure, shortened: as §1

[4] = compound: CC[C@@H]1C(=O)N(C)c2cnc(Nc3ccc(C(=O)NC4CCN(C)CC4)cc3OC)nc2N1C1CCCC1
Procedure, shortened: as §1

[5] = compound: CCn1cc(-c2ccnc3[nH]c(-c4cccc(CN(C)C)c4)cc23)c(-c2ccc(NC(=O)N(C)C)cc2)n1
Procedure, shortened: as §1

[6] = compound: CN1CCC(CNc2ccc3ncc(-c4cccc(OC(F)(F)F)c4)n3n2)CC1
Procedure, shortened: as §1

saracatinib = compound: CN1CCN(CCOc2cc(OC3CCOCC3)c3c(Nc4c(Cl)ccc5c4OCO5)ncnc3c2)CC1 [saracatinib]
Procedure, shortened: as §1

[7] = compound: CC(=O)c1cnc2ccc(-c3cc(Cl)c(O)c(Cl)c3)nc2c1N[C@H]1CC[C@H](CN(C)C)CC1
Procedure, shortened: as §1

[8] = compound: CC1=CC=C(C=C1)SC2=C3C=C(SC3=CN=C2)C(=O)N
Procedure, shortened: as §1

[9] = compound: CCCS(=O)(=O)Nc1ccc(F)c(C(=O)c2c[nH]c3ncc(Cl)cc23)c1F
Procedure, shortened: as §1

volasertib = compound: CC[C@@H]1C(=O)N(C)c2cnc(Nc3ccc(C(=O)N[C@H]4CC[C@H](N5CCN(CC6CC6)CC5)CC4)cc3OC)nc2N1C(C)C [volasertib]
Procedure, shortened: as §1

ibrutinib = compound: C=CC(=O)N1CCC[C@@H](n2nc(-c3ccc(Oc4ccccc4)cc3)c3c(N)ncnc32)C1 [ibrutinib]
Procedure, shortened: as §1

barasertib = compound: CCN(CCCOc1ccc2c(Nc3cc(CC(=O)Nc4cccc(F)c4)[nH]n3)ncnc2c1)CCOP(=O)(O)O [barasertib]
Procedure, shortened: as §1

ralimetinib = compound: CC(C)(C)Cn1c(N)nc2ccc(-c3[nH]c(C(C)(C)C)nc3-c3ccc(F)cc3)nc21 [ralimetinib]
Procedure, shortened: as §1

[10] = compound: CC(C)(O)CC(=O)NCCn1ccc2ncnc(Nc3ccc(Oc4cccc(C(F)(F)F)c4)c(Cl)c3)c21
Procedure, shortened: as §1

[11] = compound: CC1=C(C=C(C=C1)NC(=O)C2=CC(=CC=C2)N(C)C)NC(=O)C3=CC=C(C=C3)O
Procedure, shortened: as §1

[12] = compound: CCn1c(C(=O)N(C2CC2)C2CC2)cc2c3c(ncn3C)c(Nc3cc(C)n(C)n3)nc21
Procedure, shortened: as §1

[13] = compound: CC1=C(C(CC(=O)N1)C2=CC=C(C=C2)C(F)(F)F)C(=O)NC3=C(C=C4C(=C3)C=NN4)F
Procedure, shortened: as §1

Measured: log2 fold change

GRAMD1A (UniProt Q96CP6)
inactive: [1] -0.098 | [2] -0.126 | sotrastaurin 0.109

GTPBP6 (UniProt O43824)
inactive: [3] -0.617 | vemurafenib -0.089 | [4] 0.32 | [5] -0.062 | [6] -0.096 | saracatinib -0.166

HDAC3 (UniProt E7ESJ6)
inactive: [7] -0.107 | [8] -0.004 | [9] 0.031 | volasertib -0.16

HABP4 (UniProt Q5JVS0)
inactive: ibrutinib 0.145 | barasertib 0.055

GSR isoform 5 (UniProt P00390)
inactive: ibrutinib -0.033 | [7] -0.086 | ralimetinib 0.092 | [10] -0.208 | [1] -0.014 | [3] -0.323 | [2] 0.188 | [11] 0.064 | [8] -0.087 | vemurafenib 0.035 | [9] 0.038 | barasertib -0.043 | volasertib 0.103 | [12] -0.068 | [5] -0.755 | [6] 0.178 | saracatinib 0.033 | sotrastaurin -0.05

GYPA, A0A2R8Y7F9
inactive: ibrutinib -0.019 | barasertib 0.066 | [5] -0.812 | [6] 0.25

HBZ, A0A494C057
inactive: ibrutinib 0.153 | [7] 0.016 | ralimetinib 0.052 | [10] 0.125 | [13] -0.219 | [11] -0.084 | [8] 0.035 | vemurafenib 0.01 | [9] -0.016 | barasertib 0.388 | volasertib -0.011 | [12] -0.158 | [5] 1.62 | [6] -0.16

HCFC2 (UniProt Q9Y5Z7)
inactive: ibrutinib 0.022 | [2] -0.209 | barasertib 0.06 | sotrastaurin 0.161

H1-0 (UniProt P07305)
inactive: [3] 0.076 | [2] 0.116 | saracatinib -0.108 | sotrastaurin -0.006

GPT2 (UniProt Q8TD30)
inactive: ralimetinib -0.131 | [10] -0.217 | [1] -0.035 | [3] -0.059 | [2] 0.04 | [11] 0.033 | vemurafenib 0.02 | [4] 0.058 | [12] -0.199 | saracatinib -0.058 | sotrastaurin -0.004

GTF2H2C (UniProt Q6P1K8)
inactive: ralimetinib -0.031 | [10] 0.086 | [3] -0.256 | [2] -0.043 | [11] -0.001 | [4] 0.228 | [12] -0.153 | saracatinib -0.057 | sotrastaurin 0.062

Two records drawn at random from those above:
HBZ, A0A494C057
inactive: ibrutinib 0.153 | [7] 0.016 | ralimetinib 0.052 | [10] 0.125 | [13] -0.219 | [11] -0.084 | [8] 0.035 | vemurafenib 0.01 | [9] -0.016 | barasertib 0.388 | volasertib -0.011 | [12] -0.158 | [5] 1.62 | [6] -0.16

GTF2H2C (UniProt Q6P1K8)
inactive: ralimetinib -0.031 | [10] 0.086 | [3] -0.256 | [2] -0.043 | [11] -0.001 | [4] 0.228 | [12] -0.153 | saracatinib -0.057 | sotrastaurin 0.062

(listing goes on)

GSTO1 (UniProt Q5TA02)
inactive: [7] -0.027 | [13] -0.018 | [8] -0.015 | [9] 0.014 | volasertib -0.055

H3C1 (UniProt P68431)
inactive: ibrutinib -0.11 | barasertib -0.092

HACD2 (UniProt Q6Y1H2)
inactive: ibrutinib -0.148 | [7] 0.1 | ralimetinib 0.014 | [10] 0.136 | [1] -0.04 | [11] -0.074 | [8] 0.001 | [9] 0.035 | barasertib 0.116 | volasertib -0.367 | [12] 0.059

GRAMD4 (UniProt Q6IC98)
inactive: [7] 0.087 | ralimetinib -0.147 | [10] -0.187 | [1] 0.008 | [13] -0.041 | [3] -0.214 | [2] 0.202 | [11] 0.124 | [8] -0.29 | vemurafenib 0.176 | [9] 0.15 | [4] 0.145 | volasertib -0.073 | [12] -0.178 | saracatinib -0.038 | sotrastaurin -0.027

GPSM3 (UniProt Q9Y4H4)
inactive: [7] 0.024 | ralimetinib 0 | [10] -0.064 | [1] -0.182 | [13] -0.008 | [3] 0.052 | [2] 0.029 | [11] 0.027 | [8] -0.064 | [9] -0.028 | volasertib 0.004 | [12] -0.085 | [5] -0.189 | [6] -0.064 | saracatinib 0.045 | sotrastaurin 0.025

GRN (UniProt P28799)
inactive: [7] -0.071 | ralimetinib -0.023 | [10] 0.012 | [1] -0.001 | [3] 0.009 | [2] -0.074 | [11] 0.026 | [8] -0.091 | [9] 0.064 | [4] 0.175 | volasertib 0.091 | [12] 0.065 | [5] 0.078 | [6] 0.123 | saracatinib -0.056 | sotrastaurin 0.089

GULP1 (UniProt Q9UBP9)
inactive: ibrutinib -0.032 | ralimetinib -0.027 | [10] -0.087 | [1] 0.016 | [13] -0.054 | [3] 0.01 | [2] -0.081 | [11] 0.012 | vemurafenib 0.003 | barasertib -0.022 | [4] -0.047 | [12] 0.077 | [5] -0.01 | [6] -0.02 | saracatinib 0.03 | sotrastaurin 0.032

H3-3A (UniProt P84243)
inactive: ibrutinib 0.042 | [7] -0.047 | [1] 0.013 | [2] -0.034 | [8] -0.086 | vemurafenib 0.027 | [9] 0.015 | barasertib 0.067 | [4] -0.017 | volasertib -0.006 | [5] 0.027 | [6] -0.025 | sotrastaurin -0.028

GSDMD (UniProt P57764)
inactive: ralimetinib 0.091 | [10] 0.161 | [2] 0.262 | [11] -0.086 | vemurafenib 0.003 | [12] -0.114 | sotrastaurin -0.02

H3-2 (UniProt Q5TEC6)
inactive: ibrutinib -0.052 | ralimetinib 0.002 | [10] 0.006 | [3] 0.134 | [2] 0.088 | [11] 0.203 | barasertib -0.026 | [4] -0.057 | [12] -0.086 | saracatinib -0.104 | sotrastaurin 0.054

GRIPAP1 isoform 2 (UniProt Q4V328)
inactive: [2] -0.067 | sotrastaurin -0.072

GUCD1 isoform 3 (UniProt Q96NT3)
inactive: [7] -0.067 | ralimetinib -0.137 | [10] 0.07 | [1] -0.162 | [3] 0.017 | [2] 0.051 | [11] -0.016 | [8] 0.095 | [9] -0.005 | volasertib -0.005 | [12] 0.143 | saracatinib 0.034 | sotrastaurin -0.113

GSDME (UniProt O60443)
inactive: ibrutinib -0.081 | [7] -0.024 | [1] -0.073 | [3] 0.117 | [2] -0.084 | [8] -0.034 | [9] 0.041 | barasertib -0.121 | [4] 0.042 | volasertib -0.058 | [5] 0.015 | [6] 0.08 | saracatinib -0.047 | sotrastaurin 0.128

GSPT1 isoform 2 (UniProt P15170)
inactive: [7] 0.112 | [8] 0.005 | vemurafenib 0.034 | [9] 0.029 | volasertib 0.199

GRK5 (UniProt P34947)
inactive: [1] 0.025 | [13] -0.019 | vemurafenib 0.049

HAGH isoform 2 (UniProt Q16775)
inactive: [7] 0.029 | ralimetinib -0.078 | [10] 0.207 | [1] -0.038 | [3] -0.033 | [2] 0 | [11] 0.046 | [8] 0.188 | [9] 0.008 | volasertib 0.196 | [12] -0.055 | saracatinib -0.077 | sotrastaurin 0.045

GREB1 (UniProt Q4ZG55)
inactive: ibrutinib -0.109 | [1] 0.036 | [2] 0.404 | vemurafenib 0.272 | barasertib 0.053 | [4] 0.58 | [5] -0.47 | [6] 0.056 | sotrastaurin -0.06
